{"source": "paper PMC11926880", "about": "“Procognitive Potential of Neuroprotective Triazine 5-HT6 Receptor Antagonists Tested on Chronic Activity In Vivo in Rats: Computer-Aided Insight into the Role of Chalcogen-Differences on the Pharmacological Profile” (ACS Chemical Neuroscience, 2025)", "tested_on": "rats", "experiment": "NORT, total exploratory time in T2 session", "type": "in vivo, rat", "key": {"[1]": {"conditions": "0.3 mg/kg i.p. 21 days + (+)MK-801 0.1 mg/kg (Table 10)"}, "[2]": {"conditions": "1.0 mg/kg i.p. 21 days + (+)MK-801 0.1 mg/kg (Table 9)"}}, "note": "Values joined by “and” are separate entries in the source; they are usually repeats but may differ in a detail not shown here. Identical values can stand only once."}
{"smiles": "COc1cc2c(cc1OC)C(=O)C(CC1CCN(Cc3ccccc3)CC1)C2", "note": "(stereo not shown) [donepezil, reference compound]", "values": [{"measurement": "total exploratory time in T2 session ± SEM", "setting": "0.3 mg/kg i.p. 21 days + (+)MK-801 0.1 mg/kg (Table 9)", "value": "35.14 ± 3.62 F(2,18) = 0.6502; NS s"}, {"measurement": "total exploratory time in T2 session ± SEM", "setting": "[1]", "value": "35.1 ± 3.6", "unit": "s"}, {"measurement": "total exploratory time in T2 session ± SEM", "setting": "[2]", "value": "40.54 ± 3.20 F(2.19) = 1.1727; NS s"}]}
{"smiles": "C[C@]12N[C@H](Cc3ccccc31)c1ccccc12", "note": "[(+)MK-801]", "values": [{"measurement": "total exploratory time in T2 session ± SEM", "setting": "(+)MK-801 0.1 mg/kg + vehicle (Table 9), 0.1 mg/kg", "value": "39.43 ± 3.40 s and 47.29 ± 3.63 s and 33.38 ± 2.32 s"}, {"measurement": "total exploratory time in T2 session ± SEM", "setting": "(+)MK-801 0.1 mg/kg + vehicle (Table 10)", "value": "39.4 ± 3.4", "unit": "s"}]}
{"smiles": "CN1CCN(c2nc(N)nc(C(C)(C)Sc3ccc4ccccc4c3)n2)CC1", "note": "[WA-22, 4-(4-methylpiperazin-1-yl)-6-(2-(naphthalen-2-ylthio)propan-2-yl)-1,3,5-triazin-2-amine]", "values": [{"measurement": "total exploratory time in T2 session ± SEM", "setting": "[1]", "value": "25.3 ± 4.5", "unit": "s"}, {"measurement": "total exploratory time in T2 session ± SEM", "setting": "[2]", "value": "43.62 ± 4.26", "unit": "s"}]}
